Binding data for two substances are collected here from paper PMC9444247.

The target of assay [1] is T1, EGFP-INPP5E (W383A) (human) (UniProt Q9NRR6).
T1 sequence (chain, CaaX box cysteine C641 farnesylated in cells, as the paper says of INPP5E): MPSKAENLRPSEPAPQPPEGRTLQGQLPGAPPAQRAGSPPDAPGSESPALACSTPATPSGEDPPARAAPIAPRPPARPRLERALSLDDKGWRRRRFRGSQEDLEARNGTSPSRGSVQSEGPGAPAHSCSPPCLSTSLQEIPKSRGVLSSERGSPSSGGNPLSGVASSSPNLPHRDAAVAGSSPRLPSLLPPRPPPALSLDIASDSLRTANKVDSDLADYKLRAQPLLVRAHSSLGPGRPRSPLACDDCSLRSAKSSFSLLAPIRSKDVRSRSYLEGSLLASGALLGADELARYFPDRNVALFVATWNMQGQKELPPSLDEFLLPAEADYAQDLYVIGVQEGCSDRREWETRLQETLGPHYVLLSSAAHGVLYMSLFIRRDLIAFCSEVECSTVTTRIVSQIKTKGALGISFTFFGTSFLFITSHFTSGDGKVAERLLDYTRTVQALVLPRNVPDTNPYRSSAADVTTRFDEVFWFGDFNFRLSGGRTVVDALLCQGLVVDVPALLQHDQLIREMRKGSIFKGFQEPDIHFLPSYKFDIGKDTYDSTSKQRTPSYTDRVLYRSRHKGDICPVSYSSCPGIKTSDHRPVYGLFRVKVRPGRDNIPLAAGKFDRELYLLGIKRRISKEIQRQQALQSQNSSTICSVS
As to the kind of experiment: co-IP; EGFP fusion (bait) expressed in HEK293T with the co-transfected or endogenous partner; lysis in 50 mM Tris-HCl pH 7.5, 150 mM NaCl, 1% Igepal CA-630; EGFP fusions immunoprecipitated with GFP-Trap magnetic agarose beads for 2 hr or overnight at 4 °C; Western blot.

Assay [2] deals with T2, EGFP-INPP5E (wild type) (human) (UniProt Q9NRR6).
T2 sequence (chain, CaaX box cysteine C641 farnesylated in cells, as the paper says of INPP5E): T1 sequence (chain, CaaX box cysteine C641 farnesylated in cells, as the paper says of INPP5E) with A383W
The description is as above.

Numbering of substitutions follows the chain as printed. Results are given in words; binding and its absence hold for the method and conditions named. Binding seen in cells or lysates may run through a third protein. For some assays here: Binding can be weak; no strength is given. Where a sequence is shown, tags or fusion partners need not be part of it.

Turning to ARL13B-Flag (human), in assay [1], the binding result is reported as “binds”. On to CSNK2A1-myc (mouse) (enzyme), for which the binding entry in assay [2] was “no binding”.
